Whole data set: some 33,000 sequences, median “E-score (-0.5 to 0.5)” near -8e-05, cut for the highest 2% near 0.23. Some of the results follow.
biological target: T1, Nrg2 (UniProt P38082); assay: PBM E-score (8-mer binding enrichment) (E-score (-0.5 to 0.5)); higher = stronger / more preferred TF binding; conditions: protein concentration: 100 nM; construct: GST-full length
T1 sequence: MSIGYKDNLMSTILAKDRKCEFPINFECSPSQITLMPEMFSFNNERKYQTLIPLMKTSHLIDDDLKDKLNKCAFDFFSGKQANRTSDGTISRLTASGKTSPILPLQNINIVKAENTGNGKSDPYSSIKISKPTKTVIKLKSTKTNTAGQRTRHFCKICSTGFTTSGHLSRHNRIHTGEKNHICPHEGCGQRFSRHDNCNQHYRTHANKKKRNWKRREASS
Procedure, shortened: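 Universal all-10-mer Agilent arrays, double-stranded by primer extension on fresh or once-stripped slides, were probed with about 100-200 nM GST-tagged yeast transcription factors made by PURExpress. Fluorescent anti-GST detected bound protein, and masliner normalised the scans. E-scores from the Universal PBM Analysis Suite were given to each ungapped eight-base word pooled with its reverse complement.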

Sequence	PBM E-score
CCCTTGGC	0.0878
GTCTGGGA	-0.0117
AAATAGAA	-0.0257
GGCACTAC	-0.0245
CGATTTAG	0.192
GTTCGTTA	0.107
GCGCTAAA	0.0235
AAGTCGGT	-0.137
CGGTTGAG	0.132
GGTACTGA	-0.163
ATGTGCGG	0.138
ACTATTCC	-0.0137
GAGTCGCC	-0.265
ACGCCAAC	-0.224
ACCTTGCC	-0.149
TGCTGGAA	-0.0427
GGCCGAGA	0.116
GTTACTGA	0.04
CAACACAG	0.095
GGCGTTGA	-0.088
AACGCGTA	0.1
AGAACACG	0.17

Sequence	PBM E-score
CAACCTAC	0.0371
AAGTAGGG	0.181
AGGGCCGG	-0.0282
AACTGGGC	-0.18
AACTTTTC	0.0712
GGGACGCA	-0.116
AACATCCC	0.0746
ACGAGAAT	0.0822
CAGTATTA	0.244
CTATCCCC	-0.288
CGCACTAG	0.00674
AATTGACC	0.051
AGGTTCCC	-0.135
CAGGACGA	0.0583
CGCTCTAG	-0.298
AAACTGCA	-0.0357
AGAGCTAT	-0.245
ACCGGAAG	0.0367
GTCTACAC	-0.0646
CATCCCTA	0.0926
CCTACTGC	-0.0675
AACTAACA	0.131

Sequence	PBM E-score
GTCAGTAA	-0.0564
AATATCCG	0.101
AACCACTC	0.0139
AGTAACCA	0.0286
AAGCATCT	-0.0437
CGAGCGAC	-0.0894
CCCTATCA	0.0672
ACCTATGA	-0.169
ACAATTGT	0.113
CCCCTCAA	0.103
AAGGTGTG	0.045
GGGCTTAC	-0.0704
ACAGGGCT	-0.0411
GTACCCCA	-0.00269
CTACGTCC	-0.121
ACATTACC	-0.104
ATTTAAGA	-0.0351
ACGTAGCC	-0.314
ATTAGCCA	0.0757
CCGGGGAC	-0.0685
GTCTATCA	-0.0454
ACATGATA	0.125

Sequence	PBM E-score
ACAGGAAA	0.141
ACCTCGAA	-0.00777
GCTGTTCA	-0.0958
GAATACAC	-0.0524
ACAGAATA	0.148
TAGGACAA	0.049
GCAAGTGA	-0.0727
AGGTTACA	-0.0315
CCCGTGGC	-0.196
AATCCAAA	-0.0293
GCCACCTA	-0.0704
CATGGGCA	0.0918
GTGCAGCA	-0.172
AATTCACG	-0.00202
ACACGTAC	-0.0321
AGAGGCGA	-0.0974
CAACGGTC	0.0208
AGAGGCAA	0.0182
ACCTTCTA	-0.0686
GCCCCATA	0.106
GGAGGCCA	-0.116
GAGCAATC	-0.0279

Sequence	PBM E-score
AGTGCTCG	-0.0208
CCTACGCG	-0.0425
GCTAGGAA	0.0218
CCAACAGA	0.0183
CAGAAAAA	0.0239
CACCTACC	-0.151
GGGCTAAA	0.0105
ATCTCGAG	0.0834
CATTCTAG	-0.137
ACACCGCT	-0.0814
CGGGTTTA	0.104
AGCGGGGA	-0.194
ACGACCAA	-0.12
CTCGTGAC	-0.0993
CCTGGCCG	0.0485
ACACTTCG	0.113
CACAGAGG	-0.0103
GGACCTAC	-0.0192
CCTATGCA	-0.0321
AAATTTCT	-0.0155
AGGTAATG	0.0021

Quoted from the listing.
GTACCCCA | PBM E-score: -0.00269
ATTTAAGA | PBM E-score: -0.0351
AATATCCG | PBM E-score: 0.101
ACCGGAAG | PBM E-score: 0.0367

From the supplement of paper PMC3334620
